Experimental data as given in patent US20230146870A1, “METHOD TO QUANTIFY AFFINITY AND SELECTIVITY OF SMALL MOLECULES FOR PROTEINS IN LIVING CELLS” (Ohio State Innovation Foundation, priority 2021, published 2023).

How the values were obtained:
[1] = tested on: T1, microtubules in living HeLa cells; assay: Saturation binding of PB-GABA-Taxol in living HeLa cells by flow cytometry; details: HeLa cell volume 4.5 pL
T1 construct: rows headed: PB-GABA-Taxol molecules/cell at saturation; other: calibration beads, flow cytometry; other: HeLa cell volume 4.5; cellular Kd of PB-GABA-Taxol for microtubules; other: HeLa cells, 4% FBS, 37° C., verapamil 100 μM, 3 h; other: 10% FBS vs
Procedure: (§1) To quantify the affinity of PB-GABA-Taxol for microtubules in living cells (cellular Kd), we developed the saturation binding method shown in FIG. 3. In this assay the cellular Kd was measured by varying the concentration of the fluorescent probe added to cells at equilibrium as established by kinetic assays of probe uptake. Total binding of this probe to specific and non-specific sites in cells in the presence of the efflux inhibitor verapamil was determined by flow cytometry. Non-specific binding was quantified separately by addition of excess paclitaxel with the probe under the same conditions. Subtraction of the linear non-specific binding contribution from the total binding curve was used analyze specific binding of the probe to tubulin of microtubules. Measurement of this cellular dissociation constant under equilibrium conditions further allowed conversion of the half-maximal inhibitory concentration (IC50) of unlabeled compounds into cellular inhibitory constants using an adaptation of the Cheng-Prusoff equation^44 for competitive modulators (Ki) or the allosteric equation^45 for non-competitive modulators (Kb and the cooperativity factor α) as implemented by GraphPad Prism.
(§2) For saturation binding assays, HeLa cells were incubated with PB-GABA-Taxol at 37° C. for 180 min in the presence of verapamil (100 μM).
(§3) OptiMEM medium containing 4% FBS was prepared as 2× stock solutions of different concentrations of PB-GABA-Taxol by serial dilution (final [DMSO]=1.2%). Aliquots of 100 μL were added to a non-treated 96-well plate in two sets in triplicate (one set for total binding and one set for non-specific binding). HeLa cells were washed twice with PBS and suspended by trypsinization with 0.25% Trypsin-EDTA at 37° C. for 5 minutes. […] The percentage of non-specific binding was determined as non-specific binding divided by total binding. The signal window (SW) was calculated as previously described^2: SW=[(mean top (maximum) signal−mean bottom (minimum) signal)−(3)*(SD top signal+SD bottom signal)]/(SD top signal), where SD=standard deviation.

[2] = tested on: microtubules in living HeLa cells; assay: as above; details: 1.5 μM probe
Procedure: as §1, §2, §3

[3] = tested on: HeLa cells; assay: Time to equilibrium / cellular uptake of PB-GABA-Taxol by flow cytometry

In the case of `CC(=O)O[C@H]1C(=O)[C@]2(C)[C@@H](OC(=O)CCCNC(=O)c3cc4cc(F)c(O)c(F)c4oc3=O)C[C@H]3OC[C@@]3(OC(C)=O)[C@H]2[C@H](OC(=O)c2ccccc2)[C@]2(O)C[C@H](OC(=O)[C@H](O)[C@@H](NC(=O)c3ccccc3)c3ccccc3)C(C)=C1C2(C)C` [PB-GABA-Taxol], the “average concentration of saturable binding sites occupied by PB-GABA-Taxol in a HeLa cell” value [1] is reported as 22 ± 4 µM, the non-specific binding ([2]; 4% FBS) is reported as 6% and the non-specific binding ([2]; 10% FBS) is reported as 8%. For the same molecule, the “enhancement of cellular fluorescence by verapamil vs absence of verapamil” value (shortened to “enhancement … vs absence of verapamil”) ([3]; verapamil 10 μM) was 9 fold, the “enhancement … vs absence of verapamil” value ([3]; verapamil 25 μM) was 17 fold and the “enhancement … vs absence of verapamil” value ([3]; verapamil 100 μM) was 32 fold.
